In PubChem BioAssay AID2685 (National Center for Advancing Translational Sciences (NCATS), 2010):
The whole screen tested about 320,000 compounds, of which about 2,100 (0.66%) were called active. Inconclusive means that the source gave no clear call. Such entries were picked first, then a sample of the others. Calls come from the whole dose curve; as a rule, active = well fitted inhibition curve with a large enough effect in the signal ratio, with a control signal flat (not every such curve was filed as active); inconclusive = small, poorly fitted or top-dose-only effect, or effect the other way, or a change in a side signal; inactive = flat fitted curve, though single readings scatter; the % refers to the signal ratio. Potencies of inconclusive entries are doubtful fits and often do not repeat.

Experiment: qHTS Assay for Lipid Storage Modulators in Drosophila S3 Cells
Details: BODIPY lipid droplet fluorescence, 18-24 h, cells fed with added oleic acid; lipid storage change, negative = inhibition: at 46.1 µM (top of the series) unless noted
Outline: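 Drosophila S3 cells loaded with oleic acid (400 uM, as added) and compounds at several concentrations; lipid droplets imaged by 488-nm laser-scanning cytometry, 500–530 nm intensity and object ratio to cell channel. Percent activity normalized to 20 uM Triacsin C.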
% is set by controls: 0 for no effect and ±100 for the full control effect; potency is the fitted concentration of half-maximal effect.

SMILES	Potency	lipid storage change, negative = inhibition
O=C(C1CCCN(S(=O)(=O)c2cccc3nonc23)C1)N1CCC(Cc2ccccc2)CC1 (configuration not stated)	inconclusive: 20.6 µM [falling, single point]	–
Cc1nc(-c2ccc(F)cc2)c(CC(=O)N2CCN(S(=O)(=O)c3ccc(F)cc3)CC2)s1	inconclusive: 29.1 µM [activator, single point]	–
N=C(N)SCc1cn(-c2ccccc2)nc1-c1ccc(Br)cc1	–	inconclusive: -162%
O=C(CNC(=O)c1ccco1)NCC(=O)OCc1c(F)cccc1Cl	inconclusive: 29.1 µM [activator, single point]	–
COc1cc(C)nc(N2CCCC(C(=O)Nc3cccc(Cl)c3C)C2)n1 (configuration not stated)	–	inconclusive: 28.9%
O=C(Nc1ccccc1N1CCN(c2ccccc2)CC1)c1cccc(F)c1	inconclusive: 18.4 µM [activator, partial curve]	–
Cc1nc(SCC(N)=O)c(C#N)c(C)c1C	inconclusive: 0.58 µM [activator, full curve, poor fit]	–
CSc1ccccc1C(=O)Nc1ccc2c(c1)OCO2	–	inconclusive: 9.27%
CCOC(=O)C1(CC2CCCCO2)CCN(C(=O)Nc2ccc(SC)cc2)CC1 (configuration not stated)	–	inconclusive: -24.2%
COc1ccccc1CNC(=O)N1CCN(S(=O)(=O)c2ccc(Cl)cc2)CC1	active: 0.13 µM	–
COc1ccc(Cl)cc1N1C(=O)c2cccnc2C1=O	–	inconclusive: -6.2%
Cc1ccc(NC(=O)c2c(C(F)(F)F)nn(C)c2SCc2ccc(Cl)cc2)cc1C	–	inconclusive: 33.6%
O=C1CC(N2CCN(c3ccc(F)cc3)CC2)C(=O)N1c1ccc(F)cc1 (configuration not stated)	–	inactive
O=C(CN1CCN(C(=O)C2CC2)CC1)Nc1cc(C(F)(F)F)cc(C(F)(F)F)c1	inconclusive: 20.6 µM [falling, single point]	–
O=C(NC1(C(F)(F)F)NC(=O)N(CC2CCCCC2)C1=O)c1ccco1 (configuration not stated)	–	inconclusive: -40.7%
COc1ccc(CCn2c(-c3ccc(F)cc3)nc3c(c(=O)c4ccccc4n3C)c2=O)cc1OC	–	inconclusive: -16.1%
CC1CCc2c(sc3ncn(CCO)c(=O)c23)C1 (configuration not stated)	inconclusive: 16.4 µM [rising, partial curve]	–
COc1ccc(-c2ccc(SCC(=O)NCC3CCCO3)nn2)cc1OC (configuration not stated)	–	inconclusive: 32.9%
Cc1ccc(NC(=O)C2CCN(C(=O)c3ccco3)CC2)cc1C	inconclusive: 1.46 µM [activator, full curve]	–
CC(=O)Nc1ccc(N(C(=O)c2ccco2)C(C(=O)NC2CCCC2)c2ccncc2)cc1 (configuration not stated)	inconclusive: 0.13 µM [falling, full curve, poor fit]	–
COc1ccccc1CN(C)CC(=O)Nc1ccc(Cl)cc1F	–	inconclusive: -11%
COc1ccccc1-n1cnnc1SCC(=O)Nc1ccccc1	inconclusive: 29.1 µM [activator, single point]	–
O=C(CN(Cc1ccco1)S(=O)(=O)c1ccccc1)N/N=C/c1ccccc1C(=O)O	–	inconclusive: 21.7%
Cc1ccc(S(=O)(=O)N(C)CCCC(=O)N2CCOCC2)cc1	–	inconclusive: -3.74%
O=C(NCCN1CCOCC1)c1ccc(CSc2nc3ccncc3n2Cc2ccc(F)cc2)cc1	–	inconclusive: 1.44%
CCN(c1cccc(C)c1)S(=O)(=O)c1ccc(-c2ccc(=O)[nH]n2)o1	–	inconclusive: -6.41%

13 compounds already listed, ordered by count of non-hydrogen atoms, descending.
SMILES	Potency	lipid storage change, negative = inhibition
COc1ccc(CCn2c(-c3ccc(F)cc3)nc3c(c(=O)c4ccccc4n3C)c2=O)cc1OC	–	inconclusive: -16.1%
CC(=O)Nc1ccc(N(C(=O)c2ccco2)C(C(=O)NC2CCCC2)c2ccncc2)cc1 (configuration not stated)	inconclusive: 0.13 µM [falling, full curve, poor fit]	–
Cc1nc(-c2ccc(F)cc2)c(CC(=O)N2CCN(S(=O)(=O)c3ccc(F)cc3)CC2)s1	inconclusive: 29.1 µM [activator, single point]	–
O=C(CN(Cc1ccco1)S(=O)(=O)c1ccccc1)N/N=C/c1ccccc1C(=O)O	–	inconclusive: 21.7%
CCOC(=O)C1(CC2CCCCO2)CCN(C(=O)Nc2ccc(SC)cc2)CC1 (configuration not stated)	–	inconclusive: -24.2%
O=C1CC(N2CCN(c3ccc(F)cc3)CC2)C(=O)N1c1ccc(F)cc1 (configuration not stated)	–	inactive
O=C(NC1(C(F)(F)F)NC(=O)N(CC2CCCCC2)C1=O)c1ccco1 (configuration not stated)	–	inconclusive: -40.7%
O=C(CNC(=O)c1ccco1)NCC(=O)OCc1c(F)cccc1Cl	inconclusive: 29.1 µM [activator, single point]	–
Cc1ccc(NC(=O)C2CCN(C(=O)c3ccco3)CC2)cc1C	inconclusive: 1.46 µM [activator, full curve]	–
Cc1ccc(S(=O)(=O)N(C)CCCC(=O)N2CCOCC2)cc1	–	inconclusive: -3.74%
COc1ccc(Cl)cc1N1C(=O)c2cccnc2C1=O	–	inconclusive: -6.2%
CC1CCc2c(sc3ncn(CCO)c(=O)c23)C1 (configuration not stated)	inconclusive: 16.4 µM [rising, partial curve]	–
Cc1nc(SCC(N)=O)c(C#N)c(C)c1C	inconclusive: 0.58 µM [activator, full curve, poor fit]	–

(more compounds)

SMILES	Potency	lipid storage change, negative = inhibition
CN1C(=O)N(C)c2cccc3cccc1c23	–	inconclusive: 19.9%
COC(=O)C1CCN(CC(=O)N(C)c2c(N)n(Cc3ccccc3)c(=O)[nH]c2=O)CC1	–	inconclusive: -1.73%
COc1ccc(/C=C/C(=O)OC(C)C(=O)c2ccccc2)cc1OC (configuration not stated)	–	inconclusive: 8.74%
CCOC(=O)[C@@H]1[C@H]2COc3ccc(Br)cc3[C@@H]2N2C(=O)N(c3ccc(C)cc3)C(=O)[C@]12C	–	inconclusive: 9.61%
COc1ccc(C2=NN(c3nc4ccccc4s3)C(=O)/C2=C\N(C)C)cc1	–	inconclusive: -1.72%
COc1ccccc1NC(=O)NCCCCc1ccccc1	inconclusive: 11.2 µM [falling, single point]	–
CSc1ccccc1C(=O)NCCOc1cccc(C)c1	–	inconclusive: 0.39% [at 9.22 µM]
COc1ccc(-n2c(SCC(=O)NCc3ccco3)nc3sc4c(c3c2=O)CCN(C)C4)cc1	inconclusive: 20.6 µM [falling, single point]	–
CCOc1ccc(NC(=S)N2CCN(S(=O)(=O)c3ccccc3)CC2)cc1	inconclusive: 9.2 µM [activator, partial curve]	–
CCC(C)Nc1nc(N)c([N+](=O)[O-])c(NCc2ccccc2)n1 (configuration not stated)	–	inconclusive: -126%
COc1ccccc1Nc1ncnc2c1c(C)c(C)n2CCO	–	inconclusive: -1.93%
Cc1cccc(NC(=O)CSc2nnc(NC(=O)C3CCC3)s2)c1	–	inconclusive: 6.28%
O=C(c1ccc2c3c(cccc13)CC2)C1CCCN(Cc2ccncc2)C1 (configuration not stated)	–	inconclusive: -15%
Cc1cccc(N2CCN(S(=O)(=O)c3c(C)nc4scc(C)n4c3=O)CC2)c1C	inconclusive: 1.3 µM [activator, partial curve, poor fit]	–
CC(C)(C)N1CC(C(=O)Nc2ccc(C#N)cc2)CC1=O (configuration not stated)	inconclusive: 32.6 µM [falling, single point]	–
COc1ccc(NC(=O)CS(=O)c2ccc(Br)cc2)cc1 (configuration not stated)	–	inconclusive: 15.3%
CC1(C)C=C(c2ccc(O)cc2)CC(C)(C)N1	–	inconclusive: 2.05%
CC1CCN(C(=O)c2[nH]cnc2C(=O)N2CCN(C(=O)OC(C)(C)C)CC2)CC1	–	inconclusive: 41.4%
CNCCOc1ccccc1OC(C)C	–	inconclusive: -0.0141% [at 9.22 µM]
COc1cc2c(cc1/C=C/C(=O)O)OC(C)C2 (configuration not stated)	–	inconclusive: -22.5%
Cc1nn(C)c(C)c1NC(=O)COc1ccc(Cl)cc1	inconclusive: 6.51 µM [falling, single point]	–
COC(=O)C1Cc2ccccc2CN1S(=O)(=O)c1ccc(F)cc1 (configuration not stated)	–	inconclusive: -41%
COc1ccc(OC)c(NC(=O)COC(=O)C2CCC2)c1	–	inconclusive: 73.5%
COCCn1nnnc1C(c1ccc(O)c(OC)c1)N1CCc2ccccc2C1 (configuration not stated)	–	inconclusive: -94.6%
CC(C)c1ccc(/C=C2\SC(N3CCOCC3)=NC2=O)cc1	–	inconclusive: 9.95%
CCOC(=O)n1c(=O)n(Cc2ccccc2C)c2ccccc21	–	inconclusive: 40.2%

SMILES	Potency	lipid storage change, negative = inhibition
CCOC(=O)c1cnc2ccc(C(=O)OC)cc2c1NCCCN1CCOCC1	inconclusive: 18.4 µM [falling, single point]	–
COc1cccc(OC)c1C(=O)N1CCNCC1	inconclusive: 0.411 µM [activator, full curve, poor fit]	–
c1ccc(-c2nc(N3CCNCC3)nc3ccccc23)cc1	–	inconclusive: -7.16%
CCc1ccc(/C=C/c2c[nH]c3ccccc23)[n+](CC)c1	inconclusive: 29.1 µM [falling, single point]	–
CC(C)c1ccc(NC(=O)C2CCN(S(C)(=O)=O)CC2)cc1	–	inconclusive: 14.3%
COc1ccc(C2(C(=O)O)CCCC2)cc1	inconclusive: 29.1 µM [falling, single point]	–
COC(=O)C(C)Sc1n[nH]c(=S)s1 (configuration not stated)	active: 18.4 µM	–
COc1ccc(-c2ccc(-c3noc(-c4ccccc4OC)n3)c(OC)n2)cc1	–	inconclusive: 9.99%
O=C(N=Nc1c(O)[nH]c2ccccc12)c1cc(NS(=O)(=O)c2cccs2)cc(NS(=O)(=O)c2cccs2)c1	inconclusive: 4.61 µM [activator, full curve]	–
Cc1cc(C)c2nc(C)cc(N/N=C/c3ccc(O)cc3)c2c1	inconclusive: 18.4 µM [cytotoxic, partial curve]	–
NC(=O)c1nsc(C(=O)N(Cc2ccco2)C(C(=O)NCc2ccccc2)c2ccc(O)cc2)c1N (configuration not stated)	–	inconclusive: -17.7%
Cc1nnc(SCC(=O)Nc2ccc(Br)cc2)n(N)c1=O	–	inconclusive: -14.2%
COc1cc(/C=C/C(=O)OCC(=O)c2ccc3c(c2)NC(=O)CO3)ccc1OC(F)F	–	inconclusive: 5.48%
CC1CCN(CCc2nc3cc(NC(=O)Nc4ccccc4)ccc3n2C)CC1	–	inconclusive: 10.6%
CC(C)CC(=O)N(c1ccc(F)cc1)C1C=CS(=O)(=O)C1 (configuration not stated)	–	inconclusive: -27.9%
COc1ccc([C@H]2CC(=O)C=C(c3ccc(F)cc3OCc3ccccc3)C2)cc1OC	inconclusive: 29.1 µM [falling, single point]	–
O=C(/C=C\c1ccc2c(c1)OCO2)Nc1c2c(nn1-c1ccc(Cl)cc1)CSC2	inconclusive: 0.164 µM [activator, full curve]	–
CCCCC(C(=O)NC(C)c1ccccc1)C(=O)NC(C)c1ccccc1 (configuration not stated)	–	inconclusive: -18.2%
COC(=O)COc1ccc2c(-c3ccc(OC)cc3)cc(=O)oc2c1	–	inconclusive: -35.3%
Cc1c(NC(=O)COC(=O)Cc2ccc(F)cc2)c(=O)n(-c2ccccc2)n1C	–	inconclusive
Cc1cc(C)c2ccc(NN)nc2c1O	–	inconclusive: 34.4%
COc1cc(OC)c(S(=O)(=O)NC(C)C)cc1C(=O)O	–	inconclusive: -24.2%
CCn1nnnc1SCC(=O)NCc1cccs1	–	inconclusive: 48.9%
COc1ccc(-n2ncc3c(=O)n(CC(=O)N4CCCc5ccccc54)cnc32)cc1	–	inconclusive: 21.4%
CCOc1ccc(-n2c(Cc3ccccc3)nnc2SCc2c(C)noc2C)cc1	–	inconclusive: -10.2%
